This passage reports binding results from article PMC8722725.

The chains behind the UniProt entries cited, without tags or fusion partners.
UniProt Q13148: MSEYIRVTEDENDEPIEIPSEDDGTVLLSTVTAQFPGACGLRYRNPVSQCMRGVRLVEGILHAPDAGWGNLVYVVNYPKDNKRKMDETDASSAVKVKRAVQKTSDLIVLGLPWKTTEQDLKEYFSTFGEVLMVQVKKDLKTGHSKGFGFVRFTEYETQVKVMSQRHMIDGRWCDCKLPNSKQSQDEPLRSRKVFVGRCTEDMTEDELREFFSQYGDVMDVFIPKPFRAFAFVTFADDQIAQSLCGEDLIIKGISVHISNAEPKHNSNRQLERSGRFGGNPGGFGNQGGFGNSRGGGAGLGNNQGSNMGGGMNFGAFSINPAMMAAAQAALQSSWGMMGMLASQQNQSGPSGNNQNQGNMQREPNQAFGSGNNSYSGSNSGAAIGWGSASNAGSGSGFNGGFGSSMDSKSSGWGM

The target of the experiment is mCherry-TDP-43 (UniProt Q13148). As to the kind of experiment: co-IP; RFP-Trap agarose beads on lysate of HeLa cells co-transfected with mCherry-TDP-43 and SIRT2-GFP variants; blot for TDP-43 and GFP.

Results are given in words; binding and its absence hold for the method and conditions named. Binding seen in cells or lysates may run through a third protein. Some entries that bind do so weakly or less than the wild type. Tags and fused reporters may be left off the sequences shown.

B1: GFP-tagged SIRT2 (SIRT2-GFP), wild type (enzyme, UniProt Q8IXJ6 1-389)
chain: MAEPDPSHPLETQAGKVQEAQDSDSDSEGGAAGGEADMDFLRNLFSQTLSLGSQKERLLDELTLEGVARYMQSERCRRVICLVGAGISTSAGIPDFRSPSTGLYDNLEKYHLPYPEAIFEISYFKKHPEPFFALAKELYPGQFKPTICHYFMRLLKDKGLLLRCYTQNIDTLERIAGLEQEDLVEAHGTFYTSHCVSASCRHEYPLSWMKEKIFSEVTPKCEDCQSLVKPDIVFFGESLPARFFSCMQSDFLKVDLLLVMGTSLQVQPFASLISKAPLSTPRLLINKEKAGQSDPFLGMIMGLGGGMDFDSKKAYRDVAWLGECDQGCLALAELLGWKKELEDLVRREHASIDAQSGAGVPNPSTSASPKKSPPPAKDEARTTEREKPQ
Turning to B1, the binding entry was “binds”.
